Binding data for four substances are collected here from paper PMC5619756.

By UniProt entry, the sequences of proteins in these tests, tags left out. Where a name states a change or a piece, a line headed by the entry shows the natural chain unless it says otherwise.
UniProt Q05086: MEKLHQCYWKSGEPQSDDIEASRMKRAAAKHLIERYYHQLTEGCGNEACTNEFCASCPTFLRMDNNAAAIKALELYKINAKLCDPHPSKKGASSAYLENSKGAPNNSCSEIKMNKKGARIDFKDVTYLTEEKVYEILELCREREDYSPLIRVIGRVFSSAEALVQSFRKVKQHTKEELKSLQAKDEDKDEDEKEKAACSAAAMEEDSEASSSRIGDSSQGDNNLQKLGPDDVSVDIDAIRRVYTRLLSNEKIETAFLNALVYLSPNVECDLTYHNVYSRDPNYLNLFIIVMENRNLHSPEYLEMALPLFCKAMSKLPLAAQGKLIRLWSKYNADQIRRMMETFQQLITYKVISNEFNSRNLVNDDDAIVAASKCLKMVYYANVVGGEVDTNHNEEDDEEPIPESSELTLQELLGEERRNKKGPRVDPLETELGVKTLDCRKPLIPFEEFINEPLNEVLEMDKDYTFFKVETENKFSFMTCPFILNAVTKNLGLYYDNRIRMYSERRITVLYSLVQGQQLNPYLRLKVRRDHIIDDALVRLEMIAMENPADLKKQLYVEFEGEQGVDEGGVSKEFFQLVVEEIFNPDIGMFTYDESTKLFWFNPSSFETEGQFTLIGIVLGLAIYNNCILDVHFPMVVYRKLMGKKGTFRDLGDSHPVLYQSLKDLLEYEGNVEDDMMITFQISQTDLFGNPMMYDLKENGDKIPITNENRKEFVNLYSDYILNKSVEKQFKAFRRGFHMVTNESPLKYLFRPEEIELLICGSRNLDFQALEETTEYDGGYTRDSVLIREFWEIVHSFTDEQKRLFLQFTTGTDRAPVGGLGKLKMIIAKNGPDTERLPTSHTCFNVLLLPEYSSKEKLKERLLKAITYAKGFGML
UniProt Q9JK66: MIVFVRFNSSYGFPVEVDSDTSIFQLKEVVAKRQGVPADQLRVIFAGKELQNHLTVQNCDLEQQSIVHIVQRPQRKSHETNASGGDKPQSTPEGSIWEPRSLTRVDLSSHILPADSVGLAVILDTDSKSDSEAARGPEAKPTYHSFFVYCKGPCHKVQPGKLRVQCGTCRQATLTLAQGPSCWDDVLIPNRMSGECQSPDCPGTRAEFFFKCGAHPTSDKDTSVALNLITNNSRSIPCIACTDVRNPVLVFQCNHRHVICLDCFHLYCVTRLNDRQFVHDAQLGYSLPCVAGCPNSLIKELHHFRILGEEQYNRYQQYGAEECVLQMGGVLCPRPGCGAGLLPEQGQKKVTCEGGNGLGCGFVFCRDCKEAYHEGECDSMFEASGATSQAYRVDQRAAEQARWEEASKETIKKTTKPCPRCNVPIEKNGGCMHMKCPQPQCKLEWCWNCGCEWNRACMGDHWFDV
UniProt Q05152: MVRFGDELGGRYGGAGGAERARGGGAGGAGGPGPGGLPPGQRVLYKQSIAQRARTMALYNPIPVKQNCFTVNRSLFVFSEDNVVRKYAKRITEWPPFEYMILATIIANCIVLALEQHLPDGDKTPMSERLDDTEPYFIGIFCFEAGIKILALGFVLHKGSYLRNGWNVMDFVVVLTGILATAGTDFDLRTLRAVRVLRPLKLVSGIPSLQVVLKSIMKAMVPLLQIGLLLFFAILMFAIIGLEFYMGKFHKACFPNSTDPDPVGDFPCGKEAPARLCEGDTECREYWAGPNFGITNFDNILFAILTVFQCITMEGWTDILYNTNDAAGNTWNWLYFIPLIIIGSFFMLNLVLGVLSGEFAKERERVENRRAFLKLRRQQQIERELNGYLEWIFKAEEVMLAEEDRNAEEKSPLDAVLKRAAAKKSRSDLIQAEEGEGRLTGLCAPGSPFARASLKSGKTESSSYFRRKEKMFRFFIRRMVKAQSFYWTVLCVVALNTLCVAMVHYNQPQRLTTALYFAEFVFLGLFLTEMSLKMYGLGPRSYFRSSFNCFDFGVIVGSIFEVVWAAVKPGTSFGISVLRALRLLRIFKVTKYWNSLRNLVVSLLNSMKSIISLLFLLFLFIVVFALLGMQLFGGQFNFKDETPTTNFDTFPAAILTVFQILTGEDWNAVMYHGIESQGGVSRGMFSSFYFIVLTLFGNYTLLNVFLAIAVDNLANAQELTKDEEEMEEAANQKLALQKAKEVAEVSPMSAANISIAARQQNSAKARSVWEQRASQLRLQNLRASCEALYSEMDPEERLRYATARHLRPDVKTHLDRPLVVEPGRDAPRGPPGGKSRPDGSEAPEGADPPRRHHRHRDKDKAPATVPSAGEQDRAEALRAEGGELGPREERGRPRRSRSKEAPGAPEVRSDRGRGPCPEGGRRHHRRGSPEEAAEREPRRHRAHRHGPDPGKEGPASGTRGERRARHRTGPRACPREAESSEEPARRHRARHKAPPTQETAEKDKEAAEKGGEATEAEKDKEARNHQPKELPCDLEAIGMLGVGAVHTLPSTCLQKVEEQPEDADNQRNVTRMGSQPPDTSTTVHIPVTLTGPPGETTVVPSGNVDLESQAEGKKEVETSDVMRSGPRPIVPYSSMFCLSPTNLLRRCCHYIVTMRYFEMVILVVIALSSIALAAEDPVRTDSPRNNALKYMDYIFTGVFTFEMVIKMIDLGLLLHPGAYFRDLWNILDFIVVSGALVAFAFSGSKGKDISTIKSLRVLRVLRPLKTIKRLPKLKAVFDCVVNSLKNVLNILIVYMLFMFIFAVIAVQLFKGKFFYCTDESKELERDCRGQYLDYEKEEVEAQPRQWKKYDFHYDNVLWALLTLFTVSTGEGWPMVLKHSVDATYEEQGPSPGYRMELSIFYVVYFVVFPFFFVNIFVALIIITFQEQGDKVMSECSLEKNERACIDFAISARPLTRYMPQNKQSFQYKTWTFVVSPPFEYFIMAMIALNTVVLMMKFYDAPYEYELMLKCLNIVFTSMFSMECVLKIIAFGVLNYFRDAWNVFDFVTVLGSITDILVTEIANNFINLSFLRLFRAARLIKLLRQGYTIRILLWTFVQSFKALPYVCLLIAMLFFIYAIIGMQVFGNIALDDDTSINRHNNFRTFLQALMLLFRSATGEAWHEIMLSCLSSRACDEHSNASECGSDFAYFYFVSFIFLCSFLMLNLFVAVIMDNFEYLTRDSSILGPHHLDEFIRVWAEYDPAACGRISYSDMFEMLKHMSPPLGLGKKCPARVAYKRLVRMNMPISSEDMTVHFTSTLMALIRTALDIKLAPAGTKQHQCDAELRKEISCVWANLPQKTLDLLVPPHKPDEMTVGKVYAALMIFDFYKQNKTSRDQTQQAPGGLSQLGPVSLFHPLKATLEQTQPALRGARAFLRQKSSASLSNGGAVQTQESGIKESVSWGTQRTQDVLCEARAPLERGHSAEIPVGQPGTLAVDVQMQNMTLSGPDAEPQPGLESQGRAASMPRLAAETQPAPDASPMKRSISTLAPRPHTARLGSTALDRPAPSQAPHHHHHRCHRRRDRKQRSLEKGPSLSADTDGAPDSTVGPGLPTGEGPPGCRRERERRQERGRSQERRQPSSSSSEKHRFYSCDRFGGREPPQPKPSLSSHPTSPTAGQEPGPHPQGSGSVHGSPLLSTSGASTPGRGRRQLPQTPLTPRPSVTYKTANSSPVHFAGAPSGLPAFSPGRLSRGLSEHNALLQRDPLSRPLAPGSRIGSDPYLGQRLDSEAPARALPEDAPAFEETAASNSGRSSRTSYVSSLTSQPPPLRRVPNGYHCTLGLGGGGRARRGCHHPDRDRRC
UniProt O60260: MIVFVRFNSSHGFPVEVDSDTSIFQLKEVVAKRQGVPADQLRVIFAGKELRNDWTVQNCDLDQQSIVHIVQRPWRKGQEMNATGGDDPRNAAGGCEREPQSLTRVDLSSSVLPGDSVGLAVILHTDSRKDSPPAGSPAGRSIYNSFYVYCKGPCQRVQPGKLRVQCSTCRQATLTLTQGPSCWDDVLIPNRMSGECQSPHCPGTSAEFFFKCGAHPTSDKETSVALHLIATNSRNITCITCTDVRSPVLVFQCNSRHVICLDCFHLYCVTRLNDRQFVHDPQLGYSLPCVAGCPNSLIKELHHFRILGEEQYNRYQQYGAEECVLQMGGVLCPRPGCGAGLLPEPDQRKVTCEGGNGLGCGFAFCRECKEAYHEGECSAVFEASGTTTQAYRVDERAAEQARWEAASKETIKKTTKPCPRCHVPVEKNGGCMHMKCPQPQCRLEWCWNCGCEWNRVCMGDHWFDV

Results are given in words; binding and its absence hold for the method and conditions named. Binding seen in cells or lysates may run through a third protein. Some results given as binding are weak or reduced against the parent protein; the word gives no strength.

Experiment [1] deals with ubiquitin-protein ligase E3A (UBE3A), HA-tagged (human) (UniProt Q05086). As to the kind of experiment: co-IP; lysates (RIPA buffer) of co-transfected HEK-293 cells; 1 mg protein with 3-5 ug specific or control (IgG0) antibody overnight at 4°C, rProtein G agarose, Western blot. A general note: Immunoblotting shows a protein as a band on a membrane.
The target of experiment [2] is Parkin, endogenous in rat brain (rat (endogenous in rat brain)) (UniProt Q9JK66). Description: co-IP; rat brain tissue lysate (RIPA buffer); 1 mg protein with 3-5 ug specific or control antibody overnight at 4°C, rProtein G agarose, Western blot.
Experiment [3] concerns the target CaV2.2α1 subunit of the N-type calcium channel, GFP-tagged (rabbit) (UniProt Q05152). As to the kind of experiment: co-IP; lysates (RIPA buffer) of co-transfected HEK-293 cells; 1 mg protein with 3-5 ug specific or control (IgG0) antibody overnight at 4°C, rProtein G agarose, Western blot.

On to “CaV2.2α1 subunit of the N-type calcium channel, GFP-tagged (from UniProt Q05152 1-2339)”, for which, in experiment [1], the binding entry is recorded as “binds”.

As to “CaV2.2α1 subunit, endogenous in rat brain (from UniProt Q02294 1-2336)”, the binding entry in experiment [2] is reported as “binds”.

On to “Parkin, HA-tagged (from UniProt O60260 1-465) (enzyme)”, for which, in experiment [3], the binding result is listed as “binds”.

With “ubiquitin-protein ligase E3A (UBE3A), HA-tagged (from UniProt Q05086 1-875) (enzyme)”, the binding result in experiment [3] is recorded as “binds”.
